Assay results: publication PMC8231827, “A Novel Protein–Protein Interaction between RSK3 and IκBα and a New Binding Inhibitor That Suppresses Breast Cancer Tumorigenesis” (Cancers, 2021)
These are yes or no findings as the source states them, for the method shown. For some of these results: Binding seen in cells or lysates may run through a third protein. Some results given as binding are weak or reduced against the parent protein; the word gives no strength. Blank lines part the entries; values can stand above or below the substance they belong to.

Chains of the proteins cited; added tags and fusions are not shown. Lines headed by an entry give the natural chain unless they say otherwise; changes in a name come on top.
UniProt Q15349: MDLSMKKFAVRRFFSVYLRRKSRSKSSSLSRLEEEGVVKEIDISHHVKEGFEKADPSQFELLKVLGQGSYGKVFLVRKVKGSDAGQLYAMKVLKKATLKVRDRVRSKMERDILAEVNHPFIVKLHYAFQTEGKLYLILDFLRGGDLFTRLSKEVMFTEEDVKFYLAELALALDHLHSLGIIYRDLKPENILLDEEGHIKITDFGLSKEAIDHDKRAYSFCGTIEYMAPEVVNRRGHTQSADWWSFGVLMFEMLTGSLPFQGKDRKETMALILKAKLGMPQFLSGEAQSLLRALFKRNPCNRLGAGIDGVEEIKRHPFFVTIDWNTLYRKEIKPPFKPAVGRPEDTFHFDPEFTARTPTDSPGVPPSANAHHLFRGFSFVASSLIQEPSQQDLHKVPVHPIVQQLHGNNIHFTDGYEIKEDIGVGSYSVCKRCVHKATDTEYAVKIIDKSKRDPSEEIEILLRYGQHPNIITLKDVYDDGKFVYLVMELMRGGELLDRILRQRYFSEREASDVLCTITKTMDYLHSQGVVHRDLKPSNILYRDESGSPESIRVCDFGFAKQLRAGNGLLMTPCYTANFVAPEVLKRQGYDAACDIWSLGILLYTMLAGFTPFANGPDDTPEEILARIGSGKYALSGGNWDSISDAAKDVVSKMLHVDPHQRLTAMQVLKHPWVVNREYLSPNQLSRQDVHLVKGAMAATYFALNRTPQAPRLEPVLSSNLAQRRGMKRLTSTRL
UniProt P25963: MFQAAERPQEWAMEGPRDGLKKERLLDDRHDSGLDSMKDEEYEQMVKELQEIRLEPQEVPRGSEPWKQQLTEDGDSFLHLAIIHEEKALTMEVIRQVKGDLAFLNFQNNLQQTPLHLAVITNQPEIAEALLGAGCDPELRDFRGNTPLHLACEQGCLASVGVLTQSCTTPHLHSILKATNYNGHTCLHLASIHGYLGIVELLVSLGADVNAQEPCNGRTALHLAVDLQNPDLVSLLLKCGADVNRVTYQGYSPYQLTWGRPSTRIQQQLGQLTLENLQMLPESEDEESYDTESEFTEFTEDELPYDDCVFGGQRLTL

Assays:
Myc/His-tagged RSK3 = Myc/His-tagged RSK3 (UniProt Q15349); assay: co-IP; HEK293T co-transfected with Myc/His-RSK3 and GFP-IκBα (WT or DM1-4); RIPA lysate, immunoprecipitated with anti-RSK3 antibody and protein G agarose, blotted with anti-GFP antibody
PKCδ-mRFP-RSK3 = PKCδ-mRFP-RSK3 (UniProt Q15349); assay: CUPID (co-translocation of a GFP-tagged prey to the membrane with a PKCδ-mRFP-fused bait after PMA, confocal microscopy); bait and prey plasmids co-transfected into HEK293T cells; PMA 500 nM by the methods (0.1 nM by the legend of Figure 1A); screen of about 500 GFP-tagged kinases and confirmation with both tag orientations
PKCδ-mRFP-IκBα = PKCδ-mRFP-IκBα (UniProt P25963); assay: as above
GFP-tagged RSK3 = GFP-tagged RSK3 (UniProt Q15349); assay: co-IP; HEK293T co-transfected with Myc/His-IκBα and pAC-GFP-RSK3 (WT or DM1-3); immunoprecipitated with anti-RSK3 or control IgG, blotted with anti-IκBα antibody; in Figure 4E also with RSK3I (0.1, 0.5, 1 and 10 μM) or DMSO

- binding (Myc/His-tagged RSK3): binds
- binding (PKCδ-mRFP-RSK3): binds
Substance: GFP-tagged IκBα (from UniProt P25963 1-317)

- binding (PKCδ-mRFP-IκBα): binds
Substance: GFP-tagged RSK3 (from UniProt Q15349 1-733)

- binding (GFP-tagged RSK3): binds
Substance: Myc/His-IκBα (from UniProt P25963 1-317)
